Consider one compound from paper PMC6089501 (Journal of Medicinal Chemistry, 2018).

Each structure is given as a SMILES string.

The data set in a line: in vitro. The following applies: dog, MDCK-MDR1.

Consider `CC(C)NCC(O)COc1ccc(CC(N)=O)cc1` (centres unmarked) [Atenolol, reference compound], for which the Papp A→B (usually how fast a substance crosses the layer from the apical side) came to 1 ×10⁻⁶ cm/s and the apparent permeability from basolateral to apical (Papp B→A) (usually how fast a substance crosses the layer from the basolateral side) was 1 ×10⁻⁶ cm/s.
